Reference: PubChem BioAssay AID743121 (NCATS, 2013)
Shown is one part, drawn at random, of about 26,000 reagents. 167 of all reagents (0.63%) were called active. 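Calls are per gene from RSA p-values that are not deposited; an individual active-marked siRNA can sensitise only weakly.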 Reagents against one gene are numbered here. Not all columns of the deposit are shown.

Screen: 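Knock-downs that sensitise breast cancer cells to camptothecin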 (primary screen)
System: MDA-MB-231 cells, a human breast cancer line
Reagents: single siRNA against human genes, 20 nM siRNA (0.8 pmol per well)
Time to read-out: 120 h (drug added 48 h after transfection, read 72 h later)
Treatment: camptothecin 20 nM (about EC30) for 72 h; vehicle 0.1% DMSO in parallel plates
Detection: 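Cell viability by ATP luminescence (CellTiter-Glo) as % of non-targeting siRNA wells, and the log2 ratio of viability without drug over viability with camptothecin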
Scale: log2 vehicle/camptothecin viability: higher = stronger sensitisation to camptothecin; viability with camptothecin: higher = more viable cells
Units: viability with camptothecin in % of control
Hit rule: 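Active genes have an RSA gene-level p-value below 0.001, computed from the ratios of their separate siRNAs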

{"gene knocked down": "KCNJ5", "reagent": 1, "log2 vehicle/camptothecin viability": -0.124, "viability with camptothecin": 47.5, "Outcome": "inactive"}
{"gene knocked down": "KCNJ5", "reagent": 2, "log2 vehicle/camptothecin viability": -0.589, "viability with camptothecin": 110, "Outcome": "inactive"}
{"gene knocked down": "KCNJ5", "reagent": 3, "log2 vehicle/camptothecin viability": 0.0143, "viability with camptothecin": 110, "Outcome": "inactive"}
{"gene knocked down": "HMMR", "reagent": 1, "log2 vehicle/camptothecin viability": -0.153, "viability with camptothecin": 115, "Outcome": "inactive"}
{"gene knocked down": "HMMR", "reagent": 2, "log2 vehicle/camptothecin viability": -0.524, "viability with camptothecin": 84.6, "Outcome": "inactive"}
{"gene knocked down": "HMMR", "reagent": 3, "log2 vehicle/camptothecin viability": -0.135, "viability with camptothecin": 99.7, "Outcome": "inactive"}
{"gene knocked down": "HMMR", "reagent": 4, "log2 vehicle/camptothecin viability": -0.378, "viability with camptothecin": 85.2, "Outcome": "inactive"}
{"gene knocked down": "KLC3", "reagent": 1, "log2 vehicle/camptothecin viability": 0.0179, "viability with camptothecin": 49.4, "Outcome": "inactive"}
{"gene knocked down": "KLC3", "reagent": 2, "log2 vehicle/camptothecin viability": -0.00408, "viability with camptothecin": 59.1, "Outcome": "inactive"}
{"gene knocked down": "KLC3", "reagent": 3, "log2 vehicle/camptothecin viability": -0.281, "viability with camptothecin": 113, "Outcome": "inactive"}
{"gene knocked down": "KLC3", "reagent": 4, "log2 vehicle/camptothecin viability": -0.182, "viability with camptothecin": 91, "Outcome": "inactive"}
{"gene knocked down": "KIF17", "reagent": 1, "log2 vehicle/camptothecin viability": 0.242, "viability with camptothecin": 76.4, "Outcome": "inactive"}
{"gene knocked down": "KIF17", "reagent": 2, "log2 vehicle/camptothecin viability": -0.0439, "viability with camptothecin": 81.7, "Outcome": "inactive"}
{"gene knocked down": "KIF17", "reagent": 3, "log2 vehicle/camptothecin viability": -0.351, "viability with camptothecin": 49, "Outcome": "inactive"}
{"gene knocked down": "KIF17", "reagent": 4, "log2 vehicle/camptothecin viability": -0.379, "viability with camptothecin": 130, "Outcome": "inactive"}

2 entries from above, reformatted.
KCNJ5 #3 | log2 vehicle/camptothecin viability = 0.0143; viability with camptothecin = 110; Outcome = inactive
HMMR #1 | log2 vehicle/camptothecin viability = -0.153; viability with camptothecin = 115; Outcome = inactive
